Experimental data published in patent US20240368617A1, “NPR1 VARIANT TO ENHANCE PLANT RESISTANCE TO BIOTIC AND ABIOTIC STRESSES AND METHOD THEREOF” (Duke University, published 2024).
These are yes or no findings as the source states them, for the method shown. For part of these data: Binding seen in cells or lysates may run through a third protein. Some results given as binding are weak or reduced against the parent protein; the word gives no strength. For part of these data: Sequences can lack the tags named with a protein.

How the values were obtained:
[1] = molecular target: T1, Myc-tagged CUL3A (Myc-CUL3) (UniProt Q9ZVH4); experiment: GST pull-down from E. coli lysate after co-expression
T1 sequence (looked up): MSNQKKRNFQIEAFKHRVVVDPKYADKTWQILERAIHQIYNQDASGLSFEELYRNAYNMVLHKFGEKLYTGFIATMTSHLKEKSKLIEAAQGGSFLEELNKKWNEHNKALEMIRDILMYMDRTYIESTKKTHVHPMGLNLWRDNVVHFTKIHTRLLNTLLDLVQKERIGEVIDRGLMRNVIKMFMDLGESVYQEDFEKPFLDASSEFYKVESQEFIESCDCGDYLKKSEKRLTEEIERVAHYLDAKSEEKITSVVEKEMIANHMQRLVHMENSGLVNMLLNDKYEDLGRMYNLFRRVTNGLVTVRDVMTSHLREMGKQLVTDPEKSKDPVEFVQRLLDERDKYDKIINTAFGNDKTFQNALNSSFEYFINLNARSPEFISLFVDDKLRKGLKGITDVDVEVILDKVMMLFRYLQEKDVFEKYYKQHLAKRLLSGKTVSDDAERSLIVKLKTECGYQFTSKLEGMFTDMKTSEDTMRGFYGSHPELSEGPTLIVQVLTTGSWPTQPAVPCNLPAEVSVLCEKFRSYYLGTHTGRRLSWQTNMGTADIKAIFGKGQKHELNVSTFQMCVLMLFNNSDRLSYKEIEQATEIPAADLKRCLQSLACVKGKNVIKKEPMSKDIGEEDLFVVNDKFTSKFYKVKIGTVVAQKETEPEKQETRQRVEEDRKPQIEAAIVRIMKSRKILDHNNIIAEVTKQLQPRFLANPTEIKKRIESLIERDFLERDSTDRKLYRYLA

[2] = molecular target: T1, Myc-tagged CUL3A (Myc-CUL3); experiment: GST pull-down from E. coli lysate after co-expression; WT interaction is the reference
[3] = molecular target: T2, TGA3-mRFP (Arabidopsis thaliana) (UniProt Q39234); experiment: co-immunoprecipitation with anti-RFP beads, transient co-expression in N. benthamiana; WT interaction is the reference that the mutants lose
T2 sequence (looked up): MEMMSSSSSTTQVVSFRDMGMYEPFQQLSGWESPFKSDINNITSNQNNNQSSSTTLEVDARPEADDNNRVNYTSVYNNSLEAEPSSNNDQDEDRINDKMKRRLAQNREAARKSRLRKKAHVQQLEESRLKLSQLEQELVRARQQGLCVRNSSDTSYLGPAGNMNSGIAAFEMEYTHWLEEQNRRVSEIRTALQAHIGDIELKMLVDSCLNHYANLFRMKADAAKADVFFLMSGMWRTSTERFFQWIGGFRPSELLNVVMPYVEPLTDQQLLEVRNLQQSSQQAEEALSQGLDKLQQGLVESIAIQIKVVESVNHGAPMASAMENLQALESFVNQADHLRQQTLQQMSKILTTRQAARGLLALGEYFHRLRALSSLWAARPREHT

[4] = molecular target: npr1(C82A), purified recombinant protein (Arabidopsis thaliana) (UniProt P93002); experiment: size-exclusion chromatography on Superose 6 Increase; self-association
[5] = molecular target: T2, TGA3-mRFP (Arabidopsis thaliana); experiment: co-immunoprecipitation, transient co-expression in N. benthamiana
[6] = molecular target: T3, Full-length Arabidopsis thaliana NPR1 with C-terminal Strep tag, expressed in insect cells (NPR1-Strep) (Arabidopsis thaliana), P93002; experiment: BS3 cross-linking and SDS-PAGE; self-association; settings: remark: other sources report otherwise
T3 chain: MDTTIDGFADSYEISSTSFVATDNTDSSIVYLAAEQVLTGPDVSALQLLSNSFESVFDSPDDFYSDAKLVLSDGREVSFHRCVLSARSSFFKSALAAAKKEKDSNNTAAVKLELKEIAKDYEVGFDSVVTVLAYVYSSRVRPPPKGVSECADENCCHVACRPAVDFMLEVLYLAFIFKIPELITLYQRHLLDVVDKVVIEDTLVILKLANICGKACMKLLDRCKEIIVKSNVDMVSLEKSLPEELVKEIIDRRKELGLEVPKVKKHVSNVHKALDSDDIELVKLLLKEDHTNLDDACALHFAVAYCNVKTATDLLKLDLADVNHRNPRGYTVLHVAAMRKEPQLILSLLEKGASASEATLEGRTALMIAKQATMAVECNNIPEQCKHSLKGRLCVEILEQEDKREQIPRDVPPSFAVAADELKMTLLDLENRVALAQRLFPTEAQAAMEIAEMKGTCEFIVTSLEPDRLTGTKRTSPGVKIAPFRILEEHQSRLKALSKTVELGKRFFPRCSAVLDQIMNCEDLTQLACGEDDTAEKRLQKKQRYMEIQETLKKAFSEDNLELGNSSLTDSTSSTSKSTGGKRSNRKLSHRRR

[7] = molecular target: T3, Full-length Arabidopsis thaliana NPR1 …; experiment: cryo-EM; homodimer; settings: remark: other sources report otherwise

Molecule: GST-fused NPR1 deltaBHB deletion mutant (deletion of E200-L258) (from UniProt P93002 1-593)
- binding [1]: binds

Molecule: GST-fused WT NPR1 (GST-NPR1) (from UniProt P93002 1-593)
- binding [2]: binds

Molecule: HA-tagged Arabidopsis NPR1 (NPR1-HA) (from UniProt P93002 1-593)
- binding [3]: binds

Molecule: npr1(C82A), purified recombinant protein (from UniProt P93002 1-593)
- binding [4]: binds

Molecule: npr1(L346D)-HA (from UniProt P93002 1-593)
- binding [5]: binds

Molecule: npr1(L393D)-HA (from UniProt P93002 1-593)
- binding [5]: binds

Molecule: npr1(Q400C/E401L/R506C)-HA (from UniProt P93002 1-593)
- binding [5]: binds

B1: Full-length Arabidopsis thaliana NPR1 with C-terminal Strep tag, expressed in insect cells (NPR1-Strep), P93002 1-593 (protein, not shown: small tags and cut ends)
chain: MDTTIDGFADSYEISSTSFVATDNTDSSIVYLAAEQVLTGPDVSALQLLSNSFESVFDSPDDFYSDAKLVLSDGREVSFHRCVLSARSSFFKSALAAAKKEKDSNNTAAVKLELKEIAKDYEVGFDSVVTVLAYVYSSRVRPPPKGVSECADENCCHVACRPAVDFMLEVLYLAFIFKIPELITLYQRHLLDVVDKVVIEDTLVILKLANICGKACMKLLDRCKEIIVKSNVDMVSLEKSLPEELVKEIIDRRKELGLEVPKVKKHVSNVHKALDSDDIELVKLLLKEDHTNLDDACALHFAVAYCNVKTATDLLKLDLADVNHRNPRGYTVLHVAAMRKEPQLILSLLEKGASASEATLEGRTALMIAKQATMAVECNNIPEQCKHSLKGRLCVEILEQEDKREQIPRDVPPSFAVAADELKMTLLDLENRVALAQRLFPTEAQAAMEIAEMKGTCEFIVTSLEPDRLTGTKRTSPGVKIAPFRILEEHQSRLKALSKTVELGKRFFPRCSAVLDQIMNCEDLTQLACGEDDTAEKRLQKKQRYMEIQETLKKAFSEDNLELGNSSLTDSTSSTSKSTGGKRSNRKLSHRRR
- binding [6]: binds
- binding [7]: binds
